# Measurements reported in PubChem BioAssay AID1671190 (National Center for Advancing Translational Sciences (NCATS), 2021).
# Sequences of proteins named here, by UniProt entry; tags and fusion partners are left off. A change or cut given only in a name is not applied to a line headed by its entry.
# UniProt P18054: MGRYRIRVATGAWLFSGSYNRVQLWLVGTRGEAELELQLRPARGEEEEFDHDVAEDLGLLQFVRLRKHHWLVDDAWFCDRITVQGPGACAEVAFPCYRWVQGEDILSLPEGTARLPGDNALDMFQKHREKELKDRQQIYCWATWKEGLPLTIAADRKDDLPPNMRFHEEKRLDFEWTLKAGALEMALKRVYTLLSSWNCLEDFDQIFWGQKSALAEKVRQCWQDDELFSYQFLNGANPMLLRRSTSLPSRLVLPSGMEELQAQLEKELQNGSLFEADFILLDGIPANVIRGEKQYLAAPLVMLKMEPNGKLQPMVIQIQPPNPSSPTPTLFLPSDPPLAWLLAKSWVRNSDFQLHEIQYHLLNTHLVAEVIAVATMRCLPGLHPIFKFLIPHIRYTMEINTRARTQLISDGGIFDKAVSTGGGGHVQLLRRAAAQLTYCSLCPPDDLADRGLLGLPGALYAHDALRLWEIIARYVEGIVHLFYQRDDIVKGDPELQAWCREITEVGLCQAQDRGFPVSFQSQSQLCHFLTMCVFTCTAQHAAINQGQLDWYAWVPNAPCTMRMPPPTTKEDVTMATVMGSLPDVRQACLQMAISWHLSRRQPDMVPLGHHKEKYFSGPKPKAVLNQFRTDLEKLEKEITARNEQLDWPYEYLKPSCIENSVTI
# Out of some 580,000 compounds screened, about 6,100 (1.1%) were called active. This list was built around the results that the source calls inconclusive (neither active nor inactive); the mix of calls is not that of the screen. Calls come from the whole dose curve; as a rule, active = well fitted inhibition curve with a large enough effect; inconclusive = small, poorly fitted or top-dose-only effect, or another doubt; inactive = no such curve, though single readings can be large or run the other way. Potencies beside an inconclusive call are fits to weak or partial responses and may not hold up.
# Biological target: Polyunsaturated fatty acid lipoxygenase ALOX12 (Homo sapiens) (UniProt P18054)
# Experiment: Primary qHTS assay for inhibitors of human arachidonate 12S-lipoxygenase (ALOX12): Round 2
# Conditions: purified 12hLO, xylenol orange hydroperoxide absorbance; activity change, negative = inhibition: at 108 µM (top of the series) unless noted
# Procedure, shortened: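 Purified human 12hLO at 150 nM in 25 mM Hepes, 0.01% Triton X-100, pH 7.0, preincubated 15 min at room temperature with compound. Reaction started with 40 uM arachidonic acid, 30 min at room temperature. Hydroperoxide measured by Fe-xylenol orange, 573/405 nm absorbance ratio.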
# % is set by controls: 0 for no effect and ±100 for the full control effect; potency is the fitted concentration of half-maximal effect.
Compound,Potency,"activity change, negative = inhibition"
O=C(NC(=S)Nc1ccccc1Cl)c1csnn1,"inconclusive: 50.1 µM [inhibitor, partial curve, poor fit]",
COC(=O)[C@]1(C)N[C@H](CN(C)S(=O)(=O)c2ccc(OC(F)(F)F)cc2)[C@@H]2C(=O)N(C)C(=O)[C@@H]21,"inconclusive: 50.1 µM [inhibitor, single point]",
CC(C)(C)c1csc(CS(=O)(=O)c2ccccn2)n1,"inconclusive: 126 µM [inhibitor, partial curve, poor fit]",
O=C(CN1CCN(c2ccccc2F)CC1)NCCc1c[nH]c2ccccc12,inactive,
Cc1ccc(NC(=O)c2ccc3ccccc3n2)nc1,"inconclusive: 89.1 µM [inhibitor, single point]",
COCc1ccc(C(=O)N2CCCC(CCc3cccc(OC)c3)C2)o1 (stereo not drawn),inactive,
CC(=O)c1c(C)oc2ccc(NS(=O)(=O)c3ccc(C)cc3)cc12,inactive,
O=[N+]([O-])c1ccccc1/C=C/C=N/Nc1nc(Cl)c(Cl)cc1Cl,"inconclusive: 126 µM [inhibitor, single point]",
CC(C)c1nn2c(=O)cc(COC(=O)C3CCCCC3)nc2s1,inactive,
Cc1ccc([N+](=O)[O-])cc1S(=O)(=O)n1ccnc1C,inactive,
CCCN1CCN(C(=O)Nc2cccc(C(F)(F)F)c2)CC1,inactive,
CC(CCN1CCN(c2ccccc2)CC1)c1ccccc1 (stereo not drawn),"inconclusive: 50.1 µM [inhibitor, partial curve, poor fit]",
COc1ccc(/C=C/C(=O)NC(=S)Nc2ccc(N3CCN(C(C)=O)CC3)cc2)cc1,inactive,
CCCOc1cccc(C2c3c(oc4ccc(F)cc4c3=O)C(=O)N2CCCN2CCOCC2)c1 (stereo not drawn),"inconclusive: 0.794 µM [inhibitor, full curve, poor fit]",
Cc1ccc(F)c(NC(=S)NC2CC2)c1,"inconclusive: 126 µM [inhibitor, single point]",
O=C(O)C[C@@H]1CCN(Cc2c[nH]c3ccccc23)C[C@@H]1CCN1C[C@@H]2C[C@H](C1)c1cccc(=O)n1C2,"inconclusive: 10 µM [inhibitor, full curve]",
Cc1cc(/C=C2/C(=N)N3C(=NC2=O)SN=C3S(C)(=O)=O)c(C)n1-c1ccccc1F,"inconclusive: 44.7 µM [inhibitor, partial curve, poor fit]",
O=Cc1cn(CC(=O)Nc2ccccc2)c2ccccc12,"inconclusive: 112 µM [inhibitor, single point]",
COCCCN1CN(S(=O)(=O)c2ccc(Cl)cc2)c2nc3ccccc3nc21,"inconclusive: 35.5 µM [inhibitor, single point]",
N#C/C(=C/c1ccc(N2CCCCC2)o1)C(=O)Nc1ccc2ccccc2c1,"inconclusive: 44.7 µM [inhibitor, partial curve, poor fit]",
Oc1ccc2c(-c3ccc(F)cc3)noc2c1,"inconclusive: 35.5 µM [inhibitor, single point]",
NC(=O)NC(=O)COC(=O)c1ccc2c(c1)OCCO2,"inconclusive: 3.16 µM [inhibitor, full curve, poor fit]",
Cc1ccc(Oc2ccc(/C=N/O)cn2)cc1,inactive,

Compound,Potency,"activity change, negative = inhibition"
CSCCC(NS(=O)(=O)c1cccc(C(F)(F)F)c1)C(=O)N(C)CCOc1ccc(Cl)cc1 (stereo not drawn),"inconclusive: 35.5 µM [inhibitor, partial curve]",
O=C(CSc1nc2ccccc2c(=O)n1-c1ccc(F)cc1F)NC(=O)NC1CCCC1,inactive,
O=C(c1cccc2nccnc12)N1CCc2c(ncnc2N2CCOCC2)C1,"inconclusive: 3.16 µM [inhibitor, full curve, poor fit]",
Cc1nc(-c2ccc(S(=O)(=O)N3CCN(c4cccc(C(F)(F)F)c4)CC3)cc2)co1,inactive,
CCn1c(CNC(=O)COc2ccc(C(C)C)cc2)nnc1SCC(=O)Nc1cc(F)ccc1C,active: 22.4 µM,
CCCCNC(=O)NC(=O)CN(C)CCCc1ccccc1,"inconclusive: 2.82 µM [inhibitor, full curve]",
COc1ccccc1NC(=O)C(=O)NCC1COc2ccccc2O1 (stereo not drawn),inactive,
Nc1ccc(S(=O)(=O)Nc2nccc(/C=C/c3cccc([N+](=O)[O-])c3)n2)cc1,"inconclusive: 89.1 µM [inhibitor, single point]",
Cc1ccccc1N1C(=O)c2cccc3c(N(C)CCO)ccc(c23)C1=O,"inconclusive: 28.2 µM [inhibitor, full curve, poor fit]",
Cc1cc(Br)cc(C)c1NC(=O)c1sc2ncn(Cc3cccc(F)c3)c(=O)c2c1C,"inconclusive: 158 µM [inhibitor, partial curve, poor fit]",
Cc1ccc(S(=O)(=O)N2CCN(C(=O)c3cccc(-n4cccc4)c3)CC2)cc1,"inconclusive: 31.6 µM [inhibitor, partial curve, poor fit]",
CCOC(=O)c1c(O)cc(C)[nH]c1=O,inactive,
COc1cc2c(CCNC(C)=O)c[nH]c2cc1Cl,"inconclusive: 89.1 µM [inhibitor, single point]",
Cc1ccc(-n2nc3c(c2NC(=O)c2ccc(Br)o2)CSC3)c(C)c1,active: 8.91 µM,
O=C1C=C(c2ccc(Cl)cc2)C(=O)N1Nc1ccccc1,"inconclusive: 3.55 µM [inhibitor, full curve, poor fit]",
CCN1CCN(c2nc3c(C)cccn3c(=O)c2C=C(C#N)C#N)CC1,"inconclusive: 39.8 µM [inhibitor, partial curve]",
COc1ccc(CCn2c(C)nc3c(c(=O)c4ccccc4n3C)c2=O)cc1,"inconclusive: 50.1 µM [inhibitor, partial curve]",
CCc1cc(C#N)c(N)s1,"inconclusive: 56.2 µM [inhibitor, partial curve, poor fit]",
COc1ccc2[nH]c3c(c2c1)CCN1C(=O)C(CC(=O)NC/C=C(\C)CCC=C(C)C)C[C@H](C(=O)N(C(C)C)C(C)C)[C@@]31C (stereo partly drawn),"inconclusive: 0.251 µM [inhibitor, single point]",
Cn1c(=O)c2c(nc(CN3CCc4ccccc4C3)n2Cc2cccc(Cl)c2)n(C)c1=O,"inconclusive: 39.8 µM [inhibitor, partial curve, poor fit]",
COc1ccc(-c2cc3nc(NCCCN(C)C)n(C)c(=O)c3s2)cc1OC,inactive,
Cc1c(C(=O)/C=C/N(C)C)nnn1-c1ccc(Cl)cc1Cl,"inconclusive: 17.8 µM [inhibitor, full curve, poor fit]",
CCC(=O)Nc1nc2ccc([N+](=O)[O-])cc2s1,inactive,

Compound,Potency,"activity change, negative = inhibition"
Cc1n(-c2ccccc2)c2ccc(Cl)cc2[n+]1CCO,"inconclusive: 44.7 µM [inhibitor, partial curve, poor fit]",
Cc1ccc(S(=O)(=O)Nc2cncnc2NS(=O)(=O)c2ccc(C)cc2)cc1,"inconclusive: 28.2 µM [inhibitor, partial curve, poor fit]",
Cc1cc(=O)c2c(=O)[nH][nH]c2[nH]1,"inconclusive: 28.2 µM [inhibitor, partial curve]",
Cc1sc(NC(=O)C(C)C)c(C#N)c1C,"inconclusive: 3.16 µM [inhibitor, full curve, poor fit]",
CNCc1cccc(Oc2ccccc2)c1,,inactive: 6.17% [at 12.5 µM]
Cc1ccc(-c2nnc(C3CN(C(=O)c4n[nH]c5ccccc45)CC34CCOCC4)o2)cc1 (stereo not drawn),"inconclusive: 20 µM [inhibitor, full curve]",
O=C(/C=C/c1ccco1)NCc1ccc(F)cc1,active: 31.6 µM,
Cc1cc(S(=O)(=O)N2CCN(Cc3ccccc3)CC2)c(C)s1,"inconclusive: 20 µM [inhibitor, partial curve, poor fit]",
CCOc1ccc2nc(Cl)c(C3CC(c4ccco4)=NN3S(=O)(=O)c3ccccc3)cc2c1 (stereo not drawn),"inconclusive: 50.1 µM [inhibitor, partial curve, poor fit]",
CCCCOC(=O)n1ccc(C(=O)Nc2ccccc2OC)n1,inactive,
O=C1CC(N(O)c2ccccc2)C(=O)N1c1ccc(Cl)c(Cl)c1 (stereo not drawn),"inconclusive: 112 µM [inhibitor, single point]",
Cc1cc(C)c2c(=O)cc(C(=O)NCC(c3cccs3)N3CCCC3)oc2c1 (stereo not drawn),"inconclusive: 25.1 µM [inhibitor, partial curve, poor fit]",
CCNC(=O)C1CCCN(C(=O)c2ccc(C)c(F)c2)CC1 (stereo not drawn),inactive,
N#Cc1c(NC(=O)c2cc(C3CC3)on2)sc2c1CCC2,"inconclusive: 17.8 µM [inhibitor, partial curve]",
COc1cccc2cc(C(=O)NC3CCN(Cc4ccc(Cl)cc4)CC3)c(=O)oc12,"inconclusive: 28.2 µM [inhibitor, partial curve]",
Cn1c(CCNC(=O)c2ccccc2C2CCNC2)nc2ccccc21 (stereo not drawn),"inconclusive: 20 µM [inhibitor, partial curve]",
O=C(NCC1CCOCC1)Nc1ccccc1Br,"inconclusive: 89.1 µM [inhibitor, single point]",
O=C1CCN(C(=O)[C@@H]2CCCN2Cc2cccc(OC(F)(F)F)c2)CCCCCCN1,"inconclusive: 20 µM [inhibitor, full curve]",
COc1cccc(CNc2nn[nH]n2)c1OC,inactive,
CC(NC(=O)c1cc(F)cc(F)c1)c1cccc(NS(C)(=O)=O)c1 (stereo not drawn),inactive,
N#Cc1c(N)nc(SCc2ccccn2)c(C#N)c1-c1cccs1,"inconclusive: 0.282 µM [inhibitor, full curve, poor fit]",
CCOC(=O)C1CCCN(C(=O)/C=C/c2cccc([N+](=O)[O-])c2)C1 (stereo not drawn),inactive,
